# This is one part of the list.
# Biological target: T1, NTAN1_Q96AB6_75_DGSISILGSDDATTCHIVVLR (UniProt Q96AB6)
# T1 sequence (whole entry): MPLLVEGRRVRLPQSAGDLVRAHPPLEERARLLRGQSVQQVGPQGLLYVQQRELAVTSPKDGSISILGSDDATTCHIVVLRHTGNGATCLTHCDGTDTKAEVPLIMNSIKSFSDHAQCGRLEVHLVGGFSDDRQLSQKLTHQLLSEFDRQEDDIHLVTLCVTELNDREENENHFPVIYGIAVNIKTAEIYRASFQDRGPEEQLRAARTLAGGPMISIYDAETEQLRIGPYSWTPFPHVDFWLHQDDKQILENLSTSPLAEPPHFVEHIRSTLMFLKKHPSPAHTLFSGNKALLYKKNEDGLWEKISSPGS
# Assay: probe-labelled cysteine peptide fold change vs DMSO (competition) (log2 fold change); higher = less target engagement (more negative = stronger competition)
# Settings: THP-1, incubation time: 4 h
# 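Note: competitive chemoproteomic profiling in live THP-1 cells with an iodoacetamide desthiobiotin (IA-DTB) probe, comparing probe-labelled peptide intensities in compound-treated cells against DMSO-treated controls.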
smiles,measurement,setting,value
CC1Cc2ccccc2N1C(=O)C1CCCN(C(=O)CCl)C1 (mixture of isomers) [TRIM25 ligand 11 (diastereomer mixture)],probe-labelled cysteine peptide fold change,10 µM,-0.125
same,probe-labelled cysteine peptide fold change,50 µM,-0.0511

# Source: the supplement of paper PMC12067093, “Discovery and optimisation of a covalent ligand for TRIM25 and its application to targeted protein ubiquitination” (Chemical Science, 2025)
